From PubChem BioAssay AID2718 (Broad Institute, 2010)
Out of some 320,000 compounds screened, about 480 (0.15%) were called active. Inconclusive means that the source gave no clear call. Such entries were picked first, then a sample of the others. Cut-off read from the data, not from the text of the source: active = inhibition above about 26% (passing the limit was not always enough); inconclusive = no clear call, values can overlap the other calls.

Sequences of proteins named here, by UniProt entry; tags and fusion partners are left off. A change or cut given only in a name is not applied to a line headed by its entry.
UniProt O15379: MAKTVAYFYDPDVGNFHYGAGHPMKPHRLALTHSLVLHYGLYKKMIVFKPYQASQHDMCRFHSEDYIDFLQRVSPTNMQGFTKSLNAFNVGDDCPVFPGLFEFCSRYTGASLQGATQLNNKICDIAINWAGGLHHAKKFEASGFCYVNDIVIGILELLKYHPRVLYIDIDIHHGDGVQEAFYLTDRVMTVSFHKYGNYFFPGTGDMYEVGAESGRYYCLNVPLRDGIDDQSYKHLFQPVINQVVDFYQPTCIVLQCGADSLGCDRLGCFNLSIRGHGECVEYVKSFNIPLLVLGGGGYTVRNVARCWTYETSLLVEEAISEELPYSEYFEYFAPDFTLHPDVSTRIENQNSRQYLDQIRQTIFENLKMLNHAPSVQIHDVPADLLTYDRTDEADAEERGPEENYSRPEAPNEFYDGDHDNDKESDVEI

molecular target: Histone deacetylase 3 (Homo sapiens) (UniProt O15379); assay: HDAC3 deacetylase inhibitors, primary screen, biochemical, fluorescence, cell-free homogeneous (AID 2718); conditions: recombinant HDAC3, fluorogenic peptide/trypsin coupled, at 8.3 µM, active compounds read high

| SMILES | inhibition |
| --- | --- |
| CC(=O)c1c(C)[nH]c(C(=O)N(C)C(c2ccccc2)c2ccccc2)c1C | inconclusive: 19.3% |
| Cc1cc2nc(C)c(=O)n(C)c2cc1C | inactive: -7.33% |
| O=S1(=O)CCO[C@H]2Cc3ccccc3[C@H]2N1Cc1cccc(C(F)(F)F)c1 | inconclusive: 22.1% |
| CN=c1c([N+](=O)[O-])nn(-c2ccc3c(c2)OCCO3)n1O | inactive: 0.955% |
| CCOC(=O)c1cc(S(=O)(=O)NC2CCCCC2)cn1C | inconclusive: 21.6% |
| CCCCNC(=O)c1onc(CSc2ccc(F)c(F)c2)c1C(=O)NCCCC | inconclusive: 26.2% |
| CN1CCN(c2ccc(S(=O)(=O)N3CCOCC3)cc2)CC1 | inconclusive: 11.6% |
| COc1cc(/C=C/C(=O)O)cc(S(=O)(=O)Nc2ccc(F)cc2)c1OC | inconclusive: 9.58% |
| CC(C)CCOP(=O)(c1ccc(N(C)C)cc1)C(O)c1ccc(Cl)cc1Cl (stereo not drawn) | inconclusive: 22.5% |
| O=C(NCCNC(=O)c1cc(OCC(F)(F)F)ccc1OCC(F)(F)F)Nc1cccc(C(F)(F)F)c1 | active: 36.3% |
| CCC(CO)n1c(SCc2cc([N+](=O)[O-])cc3c2OCOC3)nc2ccccc2c1=O (stereo not drawn) | inactive: 10.9% |
| C[C@@H](CSc1ccccc1)CN1CC[C@H](C(C)(C)C)CCC1=O | inactive: 9.56% |
| CN(CC(=O)Nc1ccccc1C(F)(F)F)C(=O)CCc1nc2ccccc2c(=O)[nH]1 | inactive: -3.35% |
| OCCC1CN(CCCc2ccccc2)CCN1Cc1ccc(F)cc1 (stereo not drawn) | inconclusive: 8.26% |
| CN(CC(=O)NC1CCCCC1)S(=O)(=O)c1ccc2c(c1)c(=O)n(C)c(=O)n2C | inactive: -1.05% |
| COC(=O)/C(=N/Nc1ccccc1C)Sc1nnc(C(O)c2ccccc2)n1-c1ccccc1 (stereo not drawn) | inconclusive: 21% |
| Fc1ccc(COc2cccc(CNCc3ccncc3)c2)cc1 | inactive: -1.36% |
| CSc1ncccc1C(=O)OCC(=O)NC1CCCc2ccccc21 (stereo not drawn) | inactive: -3.35% |
| CCN(CC)C(=O)C1CCCN(Cc2ccc(OC)c(C)c2C)C1 (stereo not drawn) | inconclusive: 17.5% |
| CC(/C=N/NC(=O)c1ccncc1)=C\c1ccccc1 | inactive: 6.43% |
| Cc1cccc(NC(=O)CSCC(=O)OCc2ccccn2)c1 | inconclusive: 42.7% |
| COc1ccc2c(c1)c(=O)oc1cc3occ(C(C)(C)C)c3cc12 | inactive: -7.18% |

| SMILES | inhibition |
| --- | --- |
| Cn1c(-c2ccccc2)cc2ccccc21 | inactive: -6.26% |
| COc1ccc(O)c(C(=O)c2coc(=N)c(C(=O)Nc3ccc(SC(F)F)cc3)c2)c1 | inactive: 5.92% |
| O=C(NCCNc1ccc([N+](=O)[O-])cc1C(F)(F)F)c1cccc(F)c1 | inconclusive: 17.8% |
| COc1ccc(CN(C)C(=O)c2cc(S(=O)(=O)N3CCOCC3)ccc2N2CCCC2)cc1 | inactive: 0.306% |
| Cc1nn(Cc2ccc(F)cc2)c(C)c1NC(=O)c1cnn2c1NC(c1ccccc1)CC2C(F)(F)F (stereo not drawn) | inconclusive: 20.8% |
| Cc1nnc(N/N=C/c2cc(C)n(-c3ccc(F)cc3)c2C)n1N | inconclusive: 23.5% |
| CC1CCCN(C(=O)CN2C(=O)C(C)Oc3ccccc32)C1 (stereo not drawn) | inconclusive: 20.3% |
| O=C(COC(=O)c1ccc(F)c([N+](=O)[O-])c1)NC(=O)NCc1ccccc1 | inactive: 2.89% |
| Cc1ccc(O)c(NC(=S)NC(=O)c2ccccc2Cl)c1 | inactive: -0.91% |
| CC(C)=CCC/C(C)=C/CNC(=O)CC1C[C@H](C(=O)N2CCOCC2)[C@@]2(C)c3[nH]c4ccccc4c3CCN2C1=O (stereo partly drawn) | inconclusive: 26% |
| CN(CCCN1CCOCC1)C(=O)c1cc(COc2c(F)cccc2F)on1 | inactive: 0.731% |
| Cc1ccc(C(=O)CN2C(=O)c3ccccc3S2(=O)=O)cc1 | inactive: -3.83% |
| CCN1CCCC1CN(Cc1cc2c(C)cc(C)cc2[nH]c1=O)C(=O)NC1CCCCC1 (stereo not drawn) | inactive: 1.41% |
| O=C(NC1CCCCCC1)C1CCN(S(=O)(=O)c2ccc(F)cc2)CC1 | inactive: 1.43% |
| CCCS(=O)(=O)c1c(S(=O)(=O)CCC)c2c(N)cccn2c1C(=O)c1ccc(OC)cc1 | inconclusive: 24.1% |
| C=CCn1c(C)cc(C(=O)CN2NS(=O)(=O)c3ccccc3C2=O)c1C | inconclusive: 23.1% |
| COc1ccccc1C(=O)N1CCN(c2cccc(C(F)(F)F)c2)CC1 | inconclusive: 17.8% |
| Cn1cnnc1SCC(=O)Nc1cc(C(F)(F)F)ccc1N1CCOCC1 | inconclusive: 23.4% |
| COc1ccc2c(c1)O[C@H](c1ccc3c(c1)OCO3)[C@@H](O)C2=O | inconclusive: 13.6% |
| CCc1ccc(N2CSC3=C(C#N)C(c4cccs4)CC(=O)N3C2)cc1 (stereo not drawn) | inactive: 16.8% |
| Cc1ccc(S(=O)(=O)/N=C2/C=C(Sc3ncn[nH]3)C(=O)c3ccccc32)c(C)c1 | active: 38% |
| CCCNC1=C(N(C(C)=O)c2cccc(F)c2)C(=O)c2ccccc2C1=O | inactive: 3.82% |

| SMILES | inhibition |
| --- | --- |
| O=c1ncn(-c2ccc(F)cc2)c2ncccc12 | inactive: -4.6% |
| CC(C)C(=O)Nc1ccc(NC(=S)NC(=O)c2ccc([N+](=O)[O-])cc2)cc1 | inconclusive: 19.6% |
| O=S(=O)(NCCOCC(F)(F)F)c1ccc2oc3ccccc3c2c1 | inconclusive: 10.6% |
| Oc1ccc(-c2n[nH]c(=S)n2-c2ccc3c(c2)OCCO3)cc1 | inconclusive: 22.9% |
| CCN1CCN(C(=O)c2ccc(Cl)c(S(=O)(=O)N3CCOCC3)c2)CC1 | inconclusive: 19.2% |
| COc1ccc(-c2nc(CN3CCC(C(=O)NC4CCCC4)CC3)c(C)o2)cc1OC | inactive: 6.34% |
| COc1ccc(NC(=S)N(CCC(C)C)C2CCN(C(C)C)CC2)cc1 | inactive: -0.146% |
| CC(Oc1cc2oc(=O)c3c(c2cc1Cl)CCC3)C(=O)NCCCn1ccnc1 (stereo not drawn) | inactive: 3.52% |
| O=C(COc1ccc2c(c1)OCO2)Nc1cccc(F)c1 | inactive: 4.45% |
| CCCn1c(SCC(=O)c2ccc3c(c2)NC(=O)CO3)nc2ccccc21 | inconclusive: 15.6% |
| CCn1c(O)c(/C=N/N=C/c2ccccc2)c2ccc(C3=NNC(=O)CC3)cc21 | inconclusive: 31% |
| Nc1nc(Nc2cccc(C(F)(F)F)c2)nc(C(F)(F)F)n1 | inconclusive: 22.8% |
| O=S(=O)(O)c1nc2ccccc2n1Cc1cccc2ccccc12 | inconclusive: 17.5% |
| CCOC(=O)C1=C(C)N(C)C(C)=C(C(=O)OCC)C1c1ccc(Cl)cc1 | inconclusive: 22.1% |
| Cc1ccc(/C=N/n2c(-c3cccnc3)n[nH]c2=S)s1 | inconclusive: 26.6% |
| CCOc1ccccc1/C=C/C(=O)NCC(=O)N1CCC(N(C)C2CCCCC2C)CC1 (stereo not drawn) | inactive: -6.33% |
| Cc1ccc(C(=O)Oc2cc(C)n(C)c(=O)c2)cc1 | inconclusive: 25.3% |
| CCN(CC)c1ccc2cc(C(C)=O)c(=O)oc2c1 | inactive: 13% |
| COc1ccccc1OCC(=O)NCCS(=O)(=O)N1CCN(c2ccc(F)cc2)CC1 | inconclusive: 20.3% |
| COc1ccc(C(=O)n2nnc3ccccc32)cc1Br | active: 95.7% |
| COc1ccc(C(=N/O)/C(=N/O)c2ccc(OC)cc2)cc1 | inactive: 12.5% |
| C=C(C)COc1ccc(-c2n[nH]c(C)c2-c2ccccc2)c(O)c1 | active: 28.9% |

For convenience, part of the list above.

| SMILES | inhibition |
| --- | --- |
| Oc1ccc(-c2n[nH]c(=S)n2-c2ccc3c(c2)OCCO3)cc1 | inconclusive: 22.9% |
| CCN1CCN(C(=O)c2ccc(Cl)c(S(=O)(=O)N3CCOCC3)c2)CC1 | inconclusive: 19.2% |
| COc1ccc(-c2nc(CN3CCC(C(=O)NC4CCCC4)CC3)c(C)o2)cc1OC | inactive: 6.34% |
| COc1ccc(NC(=S)N(CCC(C)C)C2CCN(C(C)C)CC2)cc1 | inactive: -0.146% |
| CC(Oc1cc2oc(=O)c3c(c2cc1Cl)CCC3)C(=O)NCCCn1ccnc1 (stereo not drawn) | inactive: 3.52% |
| O=C(COc1ccc2c(c1)OCO2)Nc1cccc(F)c1 | inactive: 4.45% |
| CCCn1c(SCC(=O)c2ccc3c(c2)NC(=O)CO3)nc2ccccc21 | inconclusive: 15.6% |
| CCn1c(O)c(/C=N/N=C/c2ccccc2)c2ccc(C3=NNC(=O)CC3)cc21 | inconclusive: 31% |
| Nc1nc(Nc2cccc(C(F)(F)F)c2)nc(C(F)(F)F)n1 | inconclusive: 22.8% |
| O=S(=O)(O)c1nc2ccccc2n1Cc1cccc2ccccc12 | inconclusive: 17.5% |
| CCOC(=O)C1=C(C)N(C)C(C)=C(C(=O)OCC)C1c1ccc(Cl)cc1 | inconclusive: 22.1% |
| Cc1ccc(/C=N/n2c(-c3cccnc3)n[nH]c2=S)s1 | inconclusive: 26.6% |
| CCOc1ccccc1/C=C/C(=O)NCC(=O)N1CCC(N(C)C2CCCCC2C)CC1 (stereo not drawn) | inactive: -6.33% |
| Cc1ccc(C(=O)Oc2cc(C)n(C)c(=O)c2)cc1 | inconclusive: 25.3% |
| CCN(CC)c1ccc2cc(C(C)=O)c(=O)oc2c1 | inactive: 13% |
| COc1ccccc1OCC(=O)NCCS(=O)(=O)N1CCN(c2ccc(F)cc2)CC1 | inconclusive: 20.3% |
| COc1ccc(C(=O)n2nnc3ccccc32)cc1Br | active: 95.7% |

The list goes on.

| SMILES | inhibition |
| --- | --- |
| CC1(C)COC2(OC1)C(=O)N(CN1CCOCC1)c1ccccc12 | inconclusive: 13.7% |
| O=C(Nc1cccnc1)c1cccnc1Cl | inactive: -5.37% |
| COc1ccc(Cn2c(SCc3ccc(C)cc3)nc3cc(OC)c(OC)cc3c2=N)cc1Cl | inactive: 0.87% |
| COC(=O)/C=C/c1ccc(OC(=O)OC)c(OC(=O)OC)c1 | inactive: -0.534% |
| C=CCNC(=O)c1ccc(Cn2c(=S)[nH]c3cc4c(cc3c2=O)OCO4)cc1 | inactive: -4.53% |
| CCOC(=O)[C@@H]1[C@H]2COc3cc(OC)ccc3[C@H]2N2C(=O)N(c3ccc(C(F)(F)F)cc3)C(=O)[C@]12C | inconclusive: 25.5% |
| C=CCN1C(=O)C(CC(=O)Nc2ccccc2)SC1=Nc1c(C)n(C)n(-c2ccccc2)c1=O (stereo not drawn) | inconclusive: 17.8% |
| O=C(Nc1cnn(Cc2ccc(F)cc2)c1)c1cnccn1 | inactive: 6.06% |
| CCn1c(O)c(C=Nc2ccccc2)sc1=S | inconclusive: 18.4% |
| Cc1ccc(S(=O)(=O)N(C)CC(=O)Nc2ccc(C)cn2)cc1 | inconclusive: 17.7% |
| CCc1cc2cc(C)cc(C)c2nc1SCC(=O)N1CCN(C(=O)c2ccco2)CC1 | inconclusive: 14.2% |
| Cc1csc(NC(=O)/C=C/c2ccc(C)o2)n1 | inconclusive: 26.7% |
| O=C(NC(=S)Nc1ncc(Br)cc1Br)c1cncc(Br)c1 | inactive: -0.58% |
| CC(C)CC1NC(=O)N(CC(=O)Nc2cccc(Br)c2)C1=O (stereo not drawn) | inactive: 1.03% |
| Cn1cc([N+](=O)[O-])c(C(=O)NNC(=O)c2ccc([N+](=O)[O-])cc2)n1 | inconclusive: 22.7% |
| C#CC1(NC(=O)NS(=O)(=O)c2ccc(C)cc2)CCCCC1 | inconclusive: 13.2% |
| O=C(Cc1ccc(F)cc1)NCCc1ccc(F)cc1 | inconclusive: 13.3% |
| Cc1ccc2[nH]cc(CCNC(=O)c3ccc4c(c3)OCO4)c2c1 | inactive: 6.89% |
| O=C(N/N=C/C(Cl)=C\c1ccccc1)c1cnccn1 | inconclusive: 18.4% |
| Nc1ccc2nc(CCc3ccccc3)[nH]c2c1 | inconclusive: 29.1% |
| CN(C)CCCNC1CS(=O)(=O)CC1O (stereo not drawn) | inactive: -0.262% |
| O=C(CCCCC(=O)NNC(=O)COc1ccccc1)NNC(=O)COc1ccccc1 | inconclusive: 22% |
